Experimental data taken from patent US20190106498A1, “TREATMENT FOR ACUTE MYELOID LEUKEMIA” (priority 2017, published 2019).
At least one structure is not confirmed: it was looked up by name or label, or the drawing left a doubt.

How the values were obtained:
human AML cells = assay: αCD70/decitabine treatment of AML patient-derived xenografts in NSG mice; assay type: in vivo; conditions: αCD70 10 mg/kg, decitabine 1.5 mg/kg/d, 5 days
Method: FIGS. 1A-1I αCD70/decitabine combination therapy eradicates human CD34^+CD38^- AML stem/progenitor cells in murine xenografts. 5×10^6 FACS-purified […] cells from BM of newly diagnosed AML patients (patient […]) were injected intravenously into the tail vein of sub-lethally irradiated NSG mice. After engraftment (day 32 (P10) and day 97 (P25) after transplantation), mice were randomized and subjected to treatment with control mAb and 10 mg/kg αCD70 mAb (41D12-D) intraperitoneally (total of 3 injections) or decitabine and (1.5 mg/kg/day) for five consecutive days alone or in combination. One day after the last treatment, animals were sacrificed and blood, spleen and BM were analyzed. (FIG. 1A) Experimental setup. (FIG. 1B) CD70 expression on CD34^+CD38^- AML stem/progenitor cells. Isotype is depicted in grey; CD70 staining in black (P10) and blue (P25). […] (FIG. 1G) Representative FACS plots and (FIG. 1H) quantification indicating the frequency of CD38^- AML cells within […]^loin^-CD90^-CD34+ AML stem/progenitor cell population. […] 32 days after engraftment (engraftment in PB: 14.45+/-0.95%), NSG mice were randomized to treatment with vehicle (Veh), αCD70 mAb (αCD70, ARGX-110, 10 mg/kg), decitabine (D, 1.5 mg/kg/d) or the combination (αCD70/D) for 5 days and bone marrow, spleen and blood were analyzed.

AML LSC cells = assay: CD70 expression on AML LSCs cultured with decitabine; assay type: cell-based, human; conditions: cultured with 0.5 mM decitabine vs vehicle; protein or transcriptional level
LSCs = assay: CD70 expression on LSCs of AML patients treated with HMA; assay type: in vivo, human; conditions: newly diagnosed AML patients after HMA treatment
AML LSCs = assay: Colony plating assay of AML LSCs; assay type: cell-based, human; conditions: P6, P8, P11; all disease risk categories
Method: FIGS. 3A-3F Anti-CD70/decitabine co-treatment reduces re-plating capacity of human CD34+CD38− AML stem/progenitor cells. […] Colonies and cells were enumerated after 14 days. (FIG. 3A) Colonies per 1×10^3 plated cells. (FIG. 3B) Cells per colony. (FIG. 3C) Serial re-plating experiments. (d-f) FACS-purified lin-CD90+CD34+CD38− stem/progenitor cells from BM of “healthy” donors were cultured and plated in methylcellulose as described in (a-c). (FIG. 3D) Colonies per 1×10^3 plated cells. (FIG. 3E) Cells per colony. (FIG. 3F) Serial re-plating experiments. Data are represented as mean±S.D. Statistics: One-way-ANOVA. Dunnett's post-test (vs. αCD70/D); *, P<0.05; **, P<0.01; ***, P<0.001.

`Nc1ncn([C@H]2C[C@H](O)[C@@H](CO)O2)c(=O)n1` [decitabine, reference compound] was tested, and the “number of CD34+CD38− and CD34+CD45− cells (LSCs)” value (human AML cells) was “minimal effect at reducing LSC numbers”, the “total engraftment in the bone marrow, spleen and blood” value (human AML cells) was “reduced total engraftment” and the “CD70 expression by AML LSC cells” value (AML LSC cells) was “increased”. The “CD70 expression on LSCs compared to level at diagnosis” value (LSCs) was “increase in CD70 expression” and the “number of colonies formed by AML LSCs” value (AML LSCs) was “reduce the number of colonies”.
